Paper PMC7279231, “Synthesis, Spectroscopy, Light Stability, Single-Crystal Analysis, and In Vitro Cytotoxic Activity on HepG2 Liver Cancer of Two Novel Silver(I) Complexes of Miconazole” (International Journal of Molecular Sciences, 2020)
pIC50: −log10 of the molar value.

Key:
Balb/c 3T3 fibroblasts [1] = assay: NRU assay (lysosomal activity), Balb/c 3T3; format: cell-based, murine; settings: Mus musculus, BALB/c3T3; Balb/c 3T3, NRU, 72 h exposure, mean (n = 3) ± SD
Procedure: (§1) The human hepatoma cell line (HepG2) was purchased from the American Type Culture Collection (ATCC HB-8065). These cells were cultured in Minimum Essential Medium Eagle (MEME) (ATCC). The murine fibroblast cell line (Balb/c 3T3 clone A31) was purchased from the American Type Culture Collection (ATCC CCL-163), and the cells were cultured in Dulbecco’s Modified Eagle’s Medium (DMEM) (ATCC). The media were supplemented with 10% BCS (Balb/c 3T3), 10% FBS (HepG2), 1% L-glutamine, and 1% antibiotic solution. The cells were maintained in 75-cm^2 cell culture flasks (NUNC, Roskilde, Denmark) in a humidified incubator, NuAire (Plymouth, MN, USA) at 37 °C and 5% CO2. The medium was refreshed every two days and the cells were trypsinized by 0.25% trypsin–0.02% EDTA after reaching 70–80% confluence. […]
(§2) As a control, cultured cells were grown in the absence of the studied compounds. […] Cytotoxicity was assessed after 72 h of cell exposure to the compounds in darkness. […]
(§3) NRU assay. This method is based on staining living cells with neutral red which readily diffuses through the plasma membrane and accumulates in lysosomes. […] After 10 min of shaking, the absorbance of the dissolved NR was measured using a Synergy HTX multi-mode reader (BioTek® Instruments Inc., Winooski, VT, USA) at 540 nm using a blank as a reference. Cytotoxicity was expressed as a percentage of the negative control (0.1% DMSO). […]

Balb/c 3T3 fibroblasts [2] = assay: TPC assay (total protein content), Balb/c 3T3; format: cell-based, murine; settings: Mus musculus, BALB/c3T3; Balb/c 3T3, TPC, 72 h exposure, mean (n = 3) ± SD
Procedure: as §1, §2
(§4) TPC assay. […] The absorbance was measured at 595 nm in a microplate reader (Synergy HTX multi-mode reader (BioTek® Instruments Inc., Winooski, VT, USA)) using a blank as a reference. Cytotoxicity was expressed as a percentage of the negative control (0.1% DMSO). […]

HepG2 cells [3] = assay: TPC assay (total protein content), HepG2; format: cell-based; settings: Homo sapiens, 72 h exposure, mean (n = 3) ± SD
Procedure: as §1, §2, §4

Balb/c 3T3 fibroblasts [4] = assay: LDH leakage assay (cellular membrane integrity), Balb/c 3T3; format: cell-based, murine; settings: Mus musculus, BALB/c3T3; Balb/c 3T3, LDH, 72 h exposure, mean (n = 3) ± SD
Procedure: as §1, §2
(§5) LDH leakage assay. The integrity of the plasma membrane was assessed through the test of lactate dehydrogenase (LDH) release, which was monitored using the commercially available Cytotoxicity Detection Kit (LDH) (Roche Diagnostics, Warsaw, Poland). […] The absorbance was measured at 492 nm in a microplate reader (Synergy HTX multi-mode reader (BioTek® Instruments Inc., Winooski, VT, USA)) using a blank as a reference. […]

Balb/c 3T3 fibroblasts [5] = assay: MTT assay (mitochondrial activity), Balb/c 3T3; format: cell-based, murine; settings: Mus musculus, BALB/c3T3; Balb/c 3T3, MTT, 72 h exposure, mean (n = 3) ± SD
Procedure: as §1, §2
(§6) MTT assay. The metabolic activity of living cells was assessed by the measurement of the activity of dehydrogenases. […] The plate was shaken for 15 min at room temperature and transferred to a microplate reader (Synergy HTX multi-mode reader (BioTek® Instruments Inc., Winooski, VT, USA)) to measure the absorbance at 570 nm, using a blank as a reference. Cytotoxicity was expressed as a percentage of the negative control (0.1% DMSO). […]

HepG2 cells [6] = assay: LDH leakage assay (cellular membrane integrity), HepG2; format: cell-based; settings: Homo sapiens, 72 h exposure, mean (n = 3) ± SD
Procedure: as §1, §2, §5

HepG2 cells [7] = assay: NRU assay (lysosomal activity), HepG2; format: cell-based; settings: Homo sapiens, 72 h exposure, mean (n = 3) ± SD
Procedure: as §1, §2, §3

HepG2 cells [8] = assay: MTT assay (mitochondrial activity), HepG2; format: cell-based; settings: Homo sapiens, 72 h exposure, mean (n = 3) ± SD
Procedure: as §1, §2, §6

Clc1ccc(COC(Cn2ccnc2)c2ccc(Cl)cc2Cl)c(Cl)c1 (stereo not shown) [Miconazole, 1-[2-(2,4-dichlorobenzyloxy)-2-(2,4-dichlorophenyl)ethyl]-1H-imidazole] was tested, and the IC20 (Balb/c 3T3 fibroblasts [1]) was > 1000 nM, the pIC50 (Balb/c 3T3 fibroblasts [1]) was < 6.00 and the IC20 (Balb/c 3T3 fibroblasts [2]) was > 1000 nM. The pIC50 (Balb/c 3T3 fibroblasts [2]) was < 6.00, the IC20 (HepG2 cells [3]) was > 1000 nM and the pIC50 (HepG2 cells [3]) was < 6.00. For the same compound, the IC20 (Balb/c 3T3 fibroblasts [4]) was > 1000 nM, the pIC50 (Balb/c 3T3 fibroblasts [4]) was < 6.00 and the IC20 (Balb/c 3T3 fibroblasts [5]) was > 1000 nM. The pIC50 (Balb/c 3T3 fibroblasts [5]) was < 6.00, the IC20 (HepG2 cells [6]) was > 1000 nM and the pIC50 (HepG2 cells [6]) was < 6.00. For the same compound, the IC20 (HepG2 cells [7]) was > 1000 nM, the pIC50 (HepG2 cells [7]) was < 6.00 and the IC20 (HepG2 cells [8]) was > 1000 nM. For the same compound, the pIC50 (HepG2 cells [8]) was < 6.00.
